# In the supplement of paper PMC10338343:
# ± gives the standard deviation. Only a part is listed here, and it is no random draw. The uncertainty is large for many entries.
# Test system: MIWI (PIWIL1) piRISC loaded with piRNA #2 (30 nt)
# Assay: pre-steady-state target cleavage rate (min^-1); MIWI and MILI are mouse PIWI proteins and EfPiwi is from a freshwater sponge; tags in brackets are library labels; higher = faster piRNA-guided slicing of the target
# Conditions: guide: piRNA #2 5'p-UUAGGUAACCCAGUAGAUCCAGAGGAAUUC; auxiliary factor: 500 nM mouse GTSF1
# Procedure, shortened: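 Active affinity-purified piRISC (1 nM) loaded with one synthetic guide was mixed with a transcribed, DNA-blocked target RNA library (0.1 nM), with or without 500 nM GTSF1 partner protein, in HEPES–potassium acetate buffer at 33 °C for 0–8 or 0–960 min. Uncleaved targets were sequenced, normalised to depth and to weakly complementary targets, and pooled across three trials, with k3 capped at 0.0001 min^-1. The pre-steady-state cleavage rate was determined with a burst-and-steady-state fit.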
row,Sequence,pre-steady-state target cleavage rate
1,CUUAAGGAGACCAUCUACGGGGUUACCUAA,0.00271 ± 0.0071
2,CUUAAGGAGACCUACAUACUGGGUUACCUAA,0.00105 ± 0.0049
3,CUUAAGGAGACCAUCAUACUGGGUUACCUAA,0.00118 ± 0.0046
4,CUUAAGGAGACCAUCUACUGGAGUUACCUAA,0.00168 ± 0.0058
5,CUUAAGGAGACGAUCUACUCCGUUACCUAA,0.00147 ± 0.0034
6,CUUAAGGAGACCUAGUCCUGGGUUACCUAA,0.00101 ± 0.0078
7,CUUAAGGACAGGAUCUACUGGGUAACCUAA,0.00951 ± 0.01
8,CUUAAGGAGACCAUCUACUGGGUUACCGAA,0.00151 ± 0.0046
9,CUUAAGGAGAGCAUCUACUGGCUUACCUAA,0.00122 ± 0.0054
10,CUUAACCACUGGAUCUACUCGGUUACCUAA,0.0483 ± 0.01
11,CUUAAGGACUGGAUCUACUGCGUAACCUAA,0.00722 ± 0.013
12,CUUAAGGAGACCUAGUAUUGGGUUACCUAA,0.000878 ± 0.0075
13,CUUUUCCUCUCGAUGUACUGGGUUACCUAA,0.592 ± 0.043
14,GAAUUCCUCUGGAUCUAGUGGGUUUCCUAA,0.108 ± 0.019
15,CUUAAGGAGAGCAACUACUGGGUUACCUAA,0.00243 ± 0.0036
16,CUUAAGGAGACGAUCUUCUGGGUUUCCUAA,0.00202 ± 0.0045
17,CUUAAGGAGAGGAUCUACUGCGUAACCUAA,0.000853 ± 0.013
18,CUUAAGGAGACCUUCUACAGCGUUACCUAA,0.00566 ± 0.0029
19,CUUAAGGAGACGAUCUACUGGCUUUCCUAA,0.00185 ± 0.0041
20,CUUAAGGAGACGAUCUACUGGGUUAACUAA,0.00106 ± 0.0086

# Already shown: an excerpt of the list.
row,Sequence,pre-steady-state target cleavage rate
18,CUUAAGGAGACCUUCUACAGCGUUACCUAA,0.00566 ± 0.0029
19,CUUAAGGAGACGAUCUACUGGCUUUCCUAA,0.00185 ± 0.0041

# Remaining list, next part.

row,Sequence,pre-steady-state target cleavage rate
1,CUUAAGGAGACGAUCUCCUGGGUUACCUAA,0.00112 ± 0.006
2,CUUAAGGAGACCAUCUACUGGGGUACCUAA,0.000969 ± 0.0097
3,CUUAAGGACUGGACUCUACUGGGUUACCUAA,0.0215 ± 0.023
4,CUUAACCUCUGGAUCUGACUGGGUUACCUAA,0.0005 ± 0.017
5,CUUAAGGAGUGGAUCUACUGGGUAAGCUAA,0.000177 ± 0.032
6,CAAUUCCUCUGGAUUUACUGGGUUACCUAA,0.681 ± 0.062
7,CUUAUCCUCUGGAUCUACUGGGUAUGGAUA [g8:g26:cont:t1A],0.00136 ± 0.007
8,CUUAAGGAGACGAUCUACUGAGGUUACCUAA,0.00106 ± 0.0093
9,CUUAAGGAGACCUAGAUCGGGUUACCUAA,0.000808 ± 0.0061
10,CUUAAGGAGACCUAGUACUGGGAAUCCUAA,0.000465 ± 0.019
11,CUUAAGGAGACGAUCUAUUGGGUUACCUAA,0.00308 ± 0.0046
12,GAAUUCCUCUCCAUCUACUGGGUUACCUAA,0.706 ± 0.051
13,CUUAAGGAGACGAUCUACUCGGUUAGCUAA,0.000163 ± 0.06
14,CUUAAGGAGAGGUCUACUGGGUUACCUAA,0.00192 ± 0.004
15,CUUAAGGAGACGAUCUAGCUGGGUUACCUAA,0.00079 ± 0.0079
16,CUUAAGGAGUGGAUCUAACUGGGUUACCUAA,0.000114 ± 0.041
17,CUUAAGGAGAGGAUCUACUGGGUAACGUAA,0.00221 ± 0.0076
18,CUUAAGGAGACCUAGUACUGGGUUACCCAA,0.000857 ± 0.0089
19,GAAUUCCUCCUGGAUCUACUGGGUUACCUAA,0.445 ± 0.047
